From the supplement of paper PMC12067093, “Discovery and optimisation of a covalent ligand for TRIM25 and its application to targeted protein ubiquitination” (Chemical Science, 2025)
This is one part of the list.

Compound: Cc1cc(ccc1-c1ccccc1)C(=O)N1CCCN(CC1)C(=O)CCl [compound 10]
Experiment: probe-labelled cysteine peptide fold change vs DMSO (competition) (log2 fold change); higher = less target engagement (more negative = stronger competition)
Conditions: THP-1, incubation time: 4 h
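Also: competitive profiling in live THP-1 cells: cysteine peptides tagged with an iodoacetamide desthiobiotin (IA-DTB) probe, intensity after compound treatment relative to DMSO-treated cells.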

Target | probe-labelled cysteine peptide fold change (10 µM) | probe-labelled cysteine peptide fold change (50 µM)
HK3_P52790_190_CSGVEGQDVVQLLR (UniProt P52790) | 0.199 | -0.106
HERC2_O95714_664_CGSQFSIALTK (UniProt O95714) | 0.0498 | 0.00801
HK1_P19367_368+375_LGVEPSDDDCVSVQHVCTIVSFR (UniProt P19367) | -0.25 | 0.0499
HK1_P19367_256_MCINTEWGAFGDDGSLEDIRTEFDREIDR (UniProt P19367) | 0.329 | 0.529
HELB_Q8NG08_379_KPPWHLCVDVEK (UniProt Q8NG08) | -0.038 | -0.303
HDAC3_O15379_59_MIVFKPYQASQHDMCR (UniProt O15379) | -0.533 | 0.0537
HDLBP_Q00341_878_RIQEIIEDLEAQVTLECAIPQK (UniProt Q00341) | 0.0241 | 0.132
HDAC3_O15379_94_SLNAFNVGDDCPVFPGLFEFCSR (UniProt O15379) | 0.167 | 0.172
HIGD2A_Q9BW72_53_ENPVVPIGCLATAAALTYGLYSFHR (UniProt Q9BW72) | 0.152 | 0.0259
HDAC2_Q92769_13_KVCYYYDGDIGNYYYGQGHPMK (UniProt Q92769) | 0.103 | -0.0158
HINT1_P49773_84_CAADLGLNK (UniProt P49773) | -0.0612 | 0.0208
HIP1R_O75146_906_VVLHTGKYEELIVCSHEIAASTAQLVAASK (UniProt O75146) | 0.138 | 0.236
HDAC10_Q969S8_508_LLCVALGQLDRPPDLAHDGR (UniProt Q969S8) | 0.15 | 0.0528
HIBADH_P31937_75_HGYPLIIYDVFPDACK (UniProt P31937) | -0.159 | -0.0721
HEXA_P06865_522_RGVQAQPLNVGFCEQEFEQT (UniProt P06865) | -0.149 | 0.255
HERC4_Q5GLZ8_144_SLSDIQIVQVACGYYHSLALSK (UniProt Q5GLZ8) | -0.071 | -0.313
HDGFL2_Q7Z4V5-2_631_CGSSEDLHDVR (UniProt Q7Z4V5) | 0.0376 | -0.265
HERC2_O95714_33_DGLCGLWNEMVK (UniProt O95714) | -0.11 | -0.106
HDAC6_Q9UBN7_523+539_CLTLTPRPATEAELLTCHSAEYVGHLR (UniProt Q9UBN7) | -0.21 | -0.0913
HK1_P19367_256_MCINTEWGAFGDDGSLEDIRTEFDR (UniProt P19367) | 0.303 | 0.365
HINT3_Q9NQE9_73_QDPGTELLHCENEDLICFK (UniProt Q9NQE9) | -0.067 | -0.0225
HEATR3_Q7Z4Q2_585_NIGCFLLEVTTK (UniProt Q7Z4Q2) | -0.0817 | -0.53
HECTD1_Q9ULT8_131_VLELICTR (UniProt Q9ULT8) | 0.0517 | 0.125

6 successive entries out of the list so far, quoted:
Target | probe-labelled cysteine peptide fold change (10 µM) | probe-labelled cysteine peptide fold change (50 µM)
HDAC3_O15379_94_SLNAFNVGDDCPVFPGLFEFCSR (UniProt O15379) | 0.167 | 0.172
HIGD2A_Q9BW72_53_ENPVVPIGCLATAAALTYGLYSFHR (UniProt Q9BW72) | 0.152 | 0.0259
HDAC2_Q92769_13_KVCYYYDGDIGNYYYGQGHPMK (UniProt Q92769) | 0.103 | -0.0158
HINT1_P49773_84_CAADLGLNK (UniProt P49773) | -0.0612 | 0.0208
HIP1R_O75146_906_VVLHTGKYEELIVCSHEIAASTAQLVAASK (UniProt O75146) | 0.138 | 0.236
HDAC10_Q969S8_508_LLCVALGQLDRPPDLAHDGR (UniProt Q969S8) | 0.15 | 0.0528
